The values below are quoted from earlier work in patent US9434610B2, “HPMA—docetaxel conjugates and uses therefore” (REXAHN PHARMACEUTICALS, INC., priority 2008, dated 2016).

For this data set the following is noted: cited from earlier work.

With `CC(=O)O[C@@]12CO[C@@H]1C[C@H](O)[C@@]1(C)C(=O)[C@H](O)C3=C(C)[C@@H](OC(=O)[C@H](O)[C@@H](NC(=O)OC(C)(C)C)c4ccccc4)C[C@@](O)([C@@H](OC(=O)c4ccccc4)[C@H]21)C3(C)C` [Docetaxel], the solubility in water result is given as “practically insoluble in water”.
